Measured values published in US20130281467A1, “NOVEL MICROBICIDES” (SYNGENTA PARTICIPATIONS AG, priority 2010, published 2013).
Some entries share one result that the patent states for a list of compounds.

What follows are compounds tested on Phytophthora infestans. Conditions: 200 ppm; tomato leaf disks, inoculated 1 day after application; compared to untreated.
Format: in vivo

SMILES	disease control
Clc1ccccc1Cc1cccc(-c2ncc3c(n2)CCCCC3)n1 [Compound 33]	at least 80%
Cc1ccc(Cc2cccc(-c3ncc4c(n3)CC(C)(C)CC4)n2)cc1 [Compound 36]	at least 80%
c1ccc(Cc2cccc(-c3ncc4c(n3)CCOC4)n2)cc1 [Compound 2]	at least 80%
Cc1ccc(Cc2cccc(-c3ncc4c(n3)CCCCC4)n2)cc1 [Compound 30]	at least 80%
COc1ccc(Cc2cccc(-c3ncc4c(n3)CCOC4)n2)cc1 [Compound 21]	at least 80%
c1ccc(Cc2cccc(-c3ncc4c(n3)CCCCC4)n2)cc1 [Compound 29, 2-(6-Benzyl-pyridin-2-yl)-6,7,8,9-tetrahydro-5H-cycloheptapyrimidine]	at least 80%

These compounds were tested on Plasmopara viticola. Conditions: 200 ppm; grape vine leaf disks, inoculated 1 day after application; compared to untreated.
Format: in vivo

SMILES	disease control
COc1ccccc1Cc1cccc(-c2ncc3c(n2)CC(C)(C)CC3)n1 [Compound 14, 2-[6-(2-methoxybenzyl)-pyridin-2-yl]-7,7-dimethyl-5,6,7,8-tetrahydroquinazoline]	at least 80%
Clc1ccccc1Cc1cccc(-c2ncc3c(n2)CCCCC3)n1 [Compound 33]	at least 80%
COc1ccccc1Cc1cccc(-c2ncc3c(n2)CCCCC3)n1 [Compound 34]	at least 80%
